Hit rate of the full screen: of about 140,000 compounds, about 4,300 (3.1%) were called active. The shares of active, inactive and inconclusive entries below differ from those in the screen.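 Rule for the calls: active = readout at or below -70, meaning at least 70% loss of cells showing the perinucleolar compartment, a nuclear body marking cancer cells; inconclusive = readout between -30 and a set limit; inactive = the rest.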
Assay: High Content Assay for Compounds that inhibit the Assembly of the Perinucleolar Compartment;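 note: plate controls were DMSO wells for no effect and camptothecin positive control wells for full effect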
Conditions: PC3M PTB-GFP, PNC prevalence imaging, 16 h; at 10 µM; hits give low values
Procedure, shortened: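 Compounds are pinned in duplicate onto adhered PC3M cells stably expressing GFP-tagged PTB and incubated 16 h at 37 C. Cells are then fixed, nuclei stained with Hoechst, and PNC-positive cells counted.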

SMILES	activity change (PNC), negative = inhibition
Cc1ccc(NS(=O)(=O)c2ccc(C(=O)N3CCN(c4ccccn4)CC3)cc2)cc1	inactive: 7.91%
CC1(C)C(=O)NCCN1C(=O)CCC(=O)O	inactive: 230%
COC(=O)c1cc2c(ccn2-c2ccc(F)cc2)n1Cc1ccc(OC(C)=O)cc1	inconclusive: -30.2%
O=C(Cc1cc(=O)[nH][nH]1)N/N=C/c1c(Cl)cccc1Cl	inconclusive: -51.7%
CCCCNC(=O)c1ccc2nc(-c3ccco3)c(-c3ccco3)nc2c1	inconclusive: -66.5%
COc1ccccc1N1CCN(C(=O)c2ccccc2Oc2ccccc2)CC1	inconclusive: -39%
COc1c(C)cccc1C(=O)Nc1ccc(N2CCOCC2)c(Cl)c1	inconclusive: -61.2%
CC(=O)c1ccc(Sc2ccc(C(C)=O)cc2)cc1	inactive: -25.3%
COc1ccc(CN(Cc2nc3ccccc3c(=O)[nH]2)C(=O)C(C)(C)C)cc1	inconclusive: -31%
Cn1c(C(=O)O)cc2cc(F)ccc21	inconclusive: -47.2%
CCOC(=O)C1=C(C)NC(=O)NC1c1ccc2c(c1)OCO2 (stereo not given)	inactive: 59.8%
Cn1c(-c2ccccc2)cnc1SCC(=O)N1CCCc2ccccc21	inconclusive: -31.6%
CCCCCC(=O)Nc1ccc(N2CCN(CC)CC2)c(Cl)c1	inactive: -21.3%
Brc1ccc(-c2nnc3sc(CNC4CCCC4)cn23)cc1	inconclusive: -43.7%
Cc1sc(NC(=O)C2CCCC2)c(C#N)c1C	inconclusive: -77.5%
Cc1cc(C)c(S(=O)(=O)N(C)CC(=O)NC2CCCC2)c(C)c1	inactive: 17.9%
Cc1ccc(-c2noc(CNCCCN(C)C)n2)cc1	inconclusive: -68.4%
Cc1cccc(C)c1OCC(=O)N1CC2(C)CC1CC(C)(C)C2 (stereo not given)	inactive: 21.5%
CCOC(=O)N1CCN(C(=O)CSc2nnc(COc3ccc(Cl)cc3)o2)CC1	inactive: -29.9%
COc1ccccc1NC(=O)COC(=O)c1cnccn1	inconclusive: -42.8%

SMILES	activity change (PNC), negative = inhibition
CCN1C(=O)/C(=C\C=C2/C=CC=CN2CC)SC1=S	inconclusive: -44%
O=C(NC1CCCC1)C1CCN(c2nccs2)CC1	inactive: -6.43%
CCOC(=O)CN1CC23C=CC(O2)C(C(=O)Nc2cc(OC)ccc2OC)C3C1=O (stereo not given)	inconclusive: -45.7%
O=C(COc1ccc(Cl)cc1)NCc1nnc(SCC(=O)N2CCCc3ccccc32)o1	inconclusive: -40.6%
N#Cc1cc(-c2ccccc2)c[nH]c1=O	inconclusive: -59.8%
C/C(=N\OC(=O)Nc1ccc(Cl)cc1)c1ncc(C(F)(F)F)cc1N1CCOCC1	inconclusive: -51.8%
COc1cccc(-c2cc(C(=O)Nc3c(C)nn(Cc4ccccc4)c3C)no2)c1	inconclusive: -33.9%
c1ccc(N=P(c2nc3ccccc3o2)(N2CCOCC2)N2CCOCC2)cc1	inconclusive: -55.9%
Cc1noc(NS(=O)(=O)c2ccc(NC(=O)CCC3CCCC3)cc2)c1C	inactive: 13.5%
COC(=O)c1ccc(CSc2ccc3nnc(-c4cccc(F)c4)n3n2)o1	inconclusive: -33.2%
CN(C)S(=O)(=O)c1cccc2c1C(=O)c1ccccc1C2=O	inactive: 55.2%
COC(=O)c1nc2cc3c(cc2c(C)c1C(=O)OC)OCO3	inconclusive: -46%
COc1ccccc1-n1c(SCC(=O)N2CCCCC2)nnc1-c1ccccc1O	inconclusive: -32.7%
S=c1[nH]nc(-c2ccco2)n1/N=C/C=C/c1ccco1	inconclusive: -56.1%
CCn1ncc(Br)c1C(=O)Nc1ccc(F)c([N+](=O)[O-])c1	inactive: 26.7%
CCCN(CCC)S(=O)(=O)c1ccc(C(=O)Nc2ccc(OCC(=O)N3CCOCC3)cc2)cc1	inconclusive: -46.2%
CCOc1ccc2nc(SCC)[nH]c2c1	inactive: 29.6%
CN(Cc1cc2ccccc2[nH]c1=O)S(C)(=O)=O	inactive: 32.1%
O=C(/C(Br)=C/Nc1cc(Cl)ccc1Cl)C(F)(F)F	inconclusive: -54.2%
COc1ccc(OC)c2[nH]c(=O)c(CCNC(C)=O)cc12	inconclusive: -37.2%

11 entries out of the list, ordered by count of non-hydrogen atoms, rising.
SMILES	activity change (PNC), negative = inhibition
N#Cc1cc(-c2ccccc2)c[nH]c1=O	inconclusive: -59.8%
CN(Cc1cc2ccccc2[nH]c1=O)S(C)(=O)=O	inactive: 32.1%
CCN1C(=O)/C(=C\C=C2/C=CC=CN2CC)SC1=S	inconclusive: -44%
S=c1[nH]nc(-c2ccco2)n1/N=C/C=C/c1ccco1	inconclusive: -56.1%
COc1ccc(OC)c2[nH]c(=O)c(CCNC(C)=O)cc12	inconclusive: -37.2%
CN(C)S(=O)(=O)c1cccc2c1C(=O)c1ccccc1C2=O	inactive: 55.2%
Cc1noc(NS(=O)(=O)c2ccc(NC(=O)CCC3CCCC3)cc2)c1C	inactive: 13.5%
c1ccc(N=P(c2nc3ccccc3o2)(N2CCOCC2)N2CCOCC2)cc1	inconclusive: -55.9%
COc1ccccc1-n1c(SCC(=O)N2CCCCC2)nnc1-c1ccccc1O	inconclusive: -32.7%
O=C(COc1ccc(Cl)cc1)NCc1nnc(SCC(=O)N2CCCc3ccccc32)o1	inconclusive: -40.6%
CCCN(CCC)S(=O)(=O)c1ccc(C(=O)Nc2ccc(OCC(=O)N3CCOCC3)cc2)cc1	inconclusive: -46.2%

More compounds follow.

SMILES	activity change (PNC), negative = inhibition
CN(C)S(=O)(=O)N1CCN(S(=O)(=O)c2ccccc2)CC1	inconclusive: -30.2%
CC(/C=C/c1ccccc1)=N\NC(=O)C1CC1(C)c1ccccc1 (stereo not given)	inconclusive: -51.5%
Nc1nc(SCC(=O)NCCC(c2ccccc2)c2ccccc2)n[nH]1	inactive: 32.5%
COCCn1c(C)cc(C(=O)CSc2nncn2-c2ccccc2)c1C	inconclusive: -40.6%
COC(=O)c1ccc(COc2ccc(-c3nn[nH]n3)cc2)cc1	inconclusive: -57%
O=c1oc2ccccc2cc1-c1ccc(O)cc1O	inconclusive: -61%
CC1=C(C(=O)Nc2ccccc2C)C(c2ccc(C)o2)C2=C(CCCC2=O)N1 (stereo not given)	inconclusive: -31.1%
CC1(C(=O)O)CC(C)(C(=O)O)CC(C)(C(=O)O)C1 (stereo not given)	inconclusive: -45.4%
CN(C)S(=O)(=O)N1CCN(c2cc(Cl)ccc2Cl)CC1	inconclusive: -57%
COc1ccc(OC)c(-n2nnnc2SCC(=O)O)c1	inactive: 31.5%
COc1ccc(C2NC(=O)NC(C)=C2C(=O)OCc2ccc3c(c2)OCO3)cc1OC (stereo not given)	inconclusive: -32.1%
COc1ccc(S(=O)(=O)N2CCCN(CC(=O)C(C)(C)C)CC2)cc1	inactive: 37.6%
CCc1c(C(=O)N/N=C/c2ccc(C)o2)csc1C	inconclusive: -47.2%
Cc1nc2ccc(-n3ccc(=O)cc3)cc2s1	inconclusive: -37.7%
Nn1c(Cc2cccc3ccccc23)nnc1SCc1ccc(Cl)c(Cl)c1	inconclusive: -70%
O=C(CNC(=O)C1COc2ccccc2O1)N/N=C/c1ccc(O)cc1O (stereo not given)	inactive: 49.8%
Cc1cc(C)c2c(N)c(S(=O)(=O)c3ccccc3)sc2n1	inactive: 2.85%
COc1ccc(S(=O)(=O)NCc2csc(C)n2)cc1	inactive: -26%
Cc1sc2ncnc(Sc3nc4ccccc4s3)c2c1C	inconclusive: -30.2%
CCC(=O)Nc1ccccc1-c1nnn(CC(=O)N2c3ccccc3CC2C)n1 (stereo not given)	inconclusive: -59.7%

From PubChem BioAssay AID2417 (National Center for Advancing Translational Sciences (NCATS), 2010)
